Results reported in publication PMC10290672.

Biological target: T1, GST-WRNIP1 (UniProt Q96S55)
T1 sequence: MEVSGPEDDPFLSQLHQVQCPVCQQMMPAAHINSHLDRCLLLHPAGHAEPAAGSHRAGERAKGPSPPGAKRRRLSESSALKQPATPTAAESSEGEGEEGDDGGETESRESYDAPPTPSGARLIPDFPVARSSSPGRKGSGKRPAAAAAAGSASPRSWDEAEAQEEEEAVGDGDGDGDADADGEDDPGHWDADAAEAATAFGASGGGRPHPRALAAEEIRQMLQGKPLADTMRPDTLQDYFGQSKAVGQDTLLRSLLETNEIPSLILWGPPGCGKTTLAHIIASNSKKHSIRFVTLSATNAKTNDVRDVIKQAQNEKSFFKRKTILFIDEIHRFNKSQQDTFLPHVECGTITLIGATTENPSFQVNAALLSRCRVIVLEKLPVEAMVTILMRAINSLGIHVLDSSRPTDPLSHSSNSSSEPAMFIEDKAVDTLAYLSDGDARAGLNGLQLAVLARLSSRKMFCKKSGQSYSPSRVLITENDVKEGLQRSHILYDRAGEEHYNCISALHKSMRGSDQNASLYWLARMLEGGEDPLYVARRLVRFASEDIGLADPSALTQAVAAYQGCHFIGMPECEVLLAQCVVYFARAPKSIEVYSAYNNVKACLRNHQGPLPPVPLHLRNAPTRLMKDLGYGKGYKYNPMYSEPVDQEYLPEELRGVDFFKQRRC
Test: pull-down; 5 ug GST-WRNIP1 on GSH-Sepharose beads with various concentrations of His-MIUMyUb in 200 ul modified JS buffer, western blotting; in Fig. 3e 1 uM His-MIUMyUb with increasing K63 polyubiquitin (interaction enhanced); both purified

Question: “His-tagged MIUMyUb domain construct of myosin VI (aa 992-1122, isoform 1) (domain or fragment)” was tested. Which binding did it give?
Answer: binds

These are yes or no findings as the source states them, for the method shown. Binding can be weak; no strength is given. Sequences can lack the tags named with a protein.
